This is one part of the list.
How the values were obtained:
Test in all cases: glycan array binding signal (z-score within array); higher = stronger binding
Settings in all cases: glycan notation: IUPAC condensed, linker removed
[1] = biological target: Gal(b1-4)GlcNAc(b1-3)Gal(b1-4)GlcNAc(b1-6)[Gal(b1-3)]GalNAc
In short: (§1)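 The binding signal is a Z-score computed within each array and averaged over linkers. Arrays of the same protein sequence at different concentrations or buffers were also averaged together. Data originate from 3228 arrays in the Consortium for Functional Glycomics database, kept only where the protein sequence was available.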

[2] = biological target: Gal(b1-4)GlcNAc(b1-3)Gal(b1-4)[Fuc(a1-3)]GlcNAc(b1-3)Gal(b1-4)[Fuc(a1-3)]GlcNAc
In short: as §1

[3] = biological target: Gal(b1-4)GlcNAc(b1-3)GalNAc
In short: as §1

[4] = biological target: Gal(b1-4)GlcNAc(b1-3)[Fuc(a1-3)GlcNAc(b1-6)]Gal(b1-4)Glc
In short: as §1

[5] = biological target: Gal(b1-4)GlcNAc(b1-3)[Gal(b1-4)GlcNAc(b1-6)]Gal(b1-4)GlcNAc
In short: as §1

[6] = biological target: Gal(b1-4)GlcNAc(b1-3)[GlcNAc(b1-6)]Gal(b1-4)GlcNAc
In short: as §1

[7] = biological target: Gal(b1-4)GlcNAc(b1-6)Gal(b1-4)GlcNAc
In short: as §1

[8] = biological target: Gal(b1-4)GlcNAc(b1-6)GalNAc
In short: as §1

[9] = biological target: Gal(b1-4)GlcNAc(b1-6)[Gal(b1-3)]GalNAc
In short: as §1

[10] = biological target: Gal(b1-4)GlcNAc(b1-6)[Gal(b1-4)GlcNAc(b1-3)]GalNAc
In short: as §1

Gal(b1-4)GlcNAc6P = biological target: Gal(b1-4)GlcNAc6P
In short: as §1

Gal(b1-6)Gal = biological target: Gal(b1-6)Gal
In short: as §1

Gal3S(b1-3)GalNAc = biological target: Gal3S(b1-3)GalNAc
In short: as §1

Gal3S(b1-3)GlcNAc = biological target: Gal3S(b1-3)GlcNAc
In short: as §1

[11] = biological target: Gal3S(b1-3)[Fuc(a1-4)]GlcNAc
In short: as §1

Gal3S(b1-4)Glc = biological target: Gal3S(b1-4)Glc
In short: as §1

Gal3S(b1-4)Glc6S = biological target: Gal3S(b1-4)Glc6S
In short: as §1

Gal3S(b1-4)GlcNAc = biological target: Gal3S(b1-4)GlcNAc
In short: as §1

[12] = biological target: Gal3S(b1-4)[Fuc(a1-3)]Glc6S
In short: as §1

[13] = biological target: Gal3S(b1-4)[Fuc(a1-3)]GlcNAc
In short: as §1

[14] = biological target: Gal3S(b1-4)[Fuc(a1-3)]GlcNAc6S
In short: as §1

Gal3S4S(b1-4)GlcNAc = biological target: Gal3S4S(b1-4)GlcNAc
In short: as §1

Gal3S6S(b1-4)GlcNAc = biological target: Gal3S6S(b1-4)GlcNAc
In short: as §1

Gal3S6S(b1-4)GlcNAc6S = biological target: Gal3S6S(b1-4)GlcNAc6S
In short: as §1

Gal4S(b1-4)GlcNAc = biological target: Gal4S(b1-4)GlcNAc
In short: as §1

Gal4S6S(b1-4)GlcNAc = biological target: Gal4S6S(b1-4)GlcNAc
In short: as §1

Gal6P(b1-4)GlcNAc = biological target: Gal6P(b1-4)GlcNAc
In short: as §1

Gal6S(b1-3)GlcNAc = biological target: Gal6S(b1-3)GlcNAc
In short: as §1

Gal6S(b1-3)GlcNAc6S = biological target: Gal6S(b1-3)GlcNAc6S
In short: as §1

Gal6S(b1-4)Glc = biological target: Gal6S(b1-4)Glc
In short: as §1

Gal6S(b1-4)Glc6S = biological target: Gal6S(b1-4)Glc6S
In short: as §1

Gal6S(b1-4)GlcNAc = biological target: Gal6S(b1-4)GlcNAc
In short: as §1

Gal6S(b1-4)GlcNAc6S = biological target: Gal6S(b1-4)GlcNAc6S
In short: as §1

GalNAc(a1-3)Gal = biological target: GalNAc(a1-3)Gal
In short: as §1

GalNAc(a1-3)GalNAc = biological target: GalNAc(a1-3)GalNAc
In short: as §1

[15] = biological target: GalNAc(a1-3)GalNAc(b1-3)Gal(a1-4)Gal(b1-4)Glc
In short: as §1

[16] = biological target: GalNAc(a1-3)GalNAc(b1-3)Gal(a1-4)Gal(b1-4)GlcNAc
In short: as §1

B1: Aap lectin (Staphylococcus epidermidis) (protein)
chain: VNLNYSSPFMSLLSMPADSSSNNTKNTIDIPPTTVKGRDNYDFYGRVDIESNPTDLNATNLTRYNYGQPPGTTTAGAVQFKNQVSFDKDFDFNIRVANNRQSNTTGADGWGFMFSKKDGDDFLKNGGILREKGTPSAAGFRIDTGYYNNDPLDKIQKQAGQGYRGYGTFVKNDSQGNTSKVGSGTPSTDFLNYADNTTNDLDGKFHGQKLNNVNLKYNASNQTFTATYAGKTWTATLSELGLSPTDSYNFLVTSS
glycan array binding signal (z-score) [1]: 1.66 | glycan array binding signal (z-score) [2]: -0.102 | glycan array binding signal (z-score) [3]: -0.298 | glycan array binding signal (z-score) [4]: -0.493 | glycan array binding signal (z-score) [5]: -0.901 | glycan array binding signal (z-score) [6]: -0.878 | glycan array binding signal (z-score) [7]: 2.52 | glycan array binding signal (z-score) [8]: -0.705 | glycan array binding signal (z-score) [9]: -0.175 | glycan array binding signal (z-score) [10]: 0.093 | glycan array binding signal (z-score) (Gal(b1-4)GlcNAc6P): -0.134 | glycan array binding signal (z-score) (Gal(b1-6)Gal): -0.798 | glycan array binding signal (z-score) (Gal3S(b1-3)GalNAc): -0.88 | glycan array binding signal (z-score) (Gal3S(b1-3)GlcNAc): -0.699 | glycan array binding signal (z-score) [11]: -0.61 | glycan array binding signal (z-score) (Gal3S(b1-4)Glc): -0.828 | glycan array binding signal (z-score) (Gal3S(b1-4)Glc6S): -0.505 | glycan array binding signal (z-score) (Gal3S(b1-4)GlcNAc): -0.43 | glycan array binding signal (z-score) [12]: 1.41 | glycan array binding signal (z-score) [13]: -0.893 | glycan array binding signal (z-score) [14]: -0.886 | glycan array binding signal (z-score) (Gal3S4S(b1-4)GlcNAc): -0.845 | glycan array binding signal (z-score) (Gal3S6S(b1-4)GlcNAc): -0.847 | glycan array binding signal (z-score) (Gal3S6S(b1-4)GlcNAc6S): -0.024 | glycan array binding signal (z-score) (Gal4S(b1-4)GlcNAc): -0.121 | glycan array binding signal (z-score) (Gal4S6S(b1-4)GlcNAc): -0.857 | glycan array binding signal (z-score) (Gal6P(b1-4)GlcNAc): -0.787 | glycan array binding signal (z-score) (Gal6S(b1-3)GlcNAc): -0.197 | glycan array binding signal (z-score) (Gal6S(b1-3)GlcNAc6S): -0.9 | glycan array binding signal (z-score) (Gal6S(b1-4)Glc): -0.164 | glycan array binding signal (z-score) (Gal6S(b1-4)Glc6S): -0.888 | glycan array binding signal (z-score) (Gal6S(b1-4)GlcNAc): -0.368 | glycan array binding signal (z-score) (Gal6S(b1-4)GlcNAc6S): 1.54 | glycan array binding signal (z-score) (GalNAc(a1-3)Gal): -0.884 | glycan array binding signal (z-score) (GalNAc(a1-3)GalNAc): -0.775 | glycan array binding signal (z-score) [15]: -0.571 | glycan array binding signal (z-score) [16]: 0.611

— the supplement of paper PMC8728848
